Assay results as given in article PMC9652331.
No constants are given. Whether binding was seen depends on the method and setting. Some binding calls cover weakened binding; strength is not graded here. Sequences can lack the tags named with a protein.

Chains of the proteins cited; added tags and fusions are not shown.
UniProt Q69YN4: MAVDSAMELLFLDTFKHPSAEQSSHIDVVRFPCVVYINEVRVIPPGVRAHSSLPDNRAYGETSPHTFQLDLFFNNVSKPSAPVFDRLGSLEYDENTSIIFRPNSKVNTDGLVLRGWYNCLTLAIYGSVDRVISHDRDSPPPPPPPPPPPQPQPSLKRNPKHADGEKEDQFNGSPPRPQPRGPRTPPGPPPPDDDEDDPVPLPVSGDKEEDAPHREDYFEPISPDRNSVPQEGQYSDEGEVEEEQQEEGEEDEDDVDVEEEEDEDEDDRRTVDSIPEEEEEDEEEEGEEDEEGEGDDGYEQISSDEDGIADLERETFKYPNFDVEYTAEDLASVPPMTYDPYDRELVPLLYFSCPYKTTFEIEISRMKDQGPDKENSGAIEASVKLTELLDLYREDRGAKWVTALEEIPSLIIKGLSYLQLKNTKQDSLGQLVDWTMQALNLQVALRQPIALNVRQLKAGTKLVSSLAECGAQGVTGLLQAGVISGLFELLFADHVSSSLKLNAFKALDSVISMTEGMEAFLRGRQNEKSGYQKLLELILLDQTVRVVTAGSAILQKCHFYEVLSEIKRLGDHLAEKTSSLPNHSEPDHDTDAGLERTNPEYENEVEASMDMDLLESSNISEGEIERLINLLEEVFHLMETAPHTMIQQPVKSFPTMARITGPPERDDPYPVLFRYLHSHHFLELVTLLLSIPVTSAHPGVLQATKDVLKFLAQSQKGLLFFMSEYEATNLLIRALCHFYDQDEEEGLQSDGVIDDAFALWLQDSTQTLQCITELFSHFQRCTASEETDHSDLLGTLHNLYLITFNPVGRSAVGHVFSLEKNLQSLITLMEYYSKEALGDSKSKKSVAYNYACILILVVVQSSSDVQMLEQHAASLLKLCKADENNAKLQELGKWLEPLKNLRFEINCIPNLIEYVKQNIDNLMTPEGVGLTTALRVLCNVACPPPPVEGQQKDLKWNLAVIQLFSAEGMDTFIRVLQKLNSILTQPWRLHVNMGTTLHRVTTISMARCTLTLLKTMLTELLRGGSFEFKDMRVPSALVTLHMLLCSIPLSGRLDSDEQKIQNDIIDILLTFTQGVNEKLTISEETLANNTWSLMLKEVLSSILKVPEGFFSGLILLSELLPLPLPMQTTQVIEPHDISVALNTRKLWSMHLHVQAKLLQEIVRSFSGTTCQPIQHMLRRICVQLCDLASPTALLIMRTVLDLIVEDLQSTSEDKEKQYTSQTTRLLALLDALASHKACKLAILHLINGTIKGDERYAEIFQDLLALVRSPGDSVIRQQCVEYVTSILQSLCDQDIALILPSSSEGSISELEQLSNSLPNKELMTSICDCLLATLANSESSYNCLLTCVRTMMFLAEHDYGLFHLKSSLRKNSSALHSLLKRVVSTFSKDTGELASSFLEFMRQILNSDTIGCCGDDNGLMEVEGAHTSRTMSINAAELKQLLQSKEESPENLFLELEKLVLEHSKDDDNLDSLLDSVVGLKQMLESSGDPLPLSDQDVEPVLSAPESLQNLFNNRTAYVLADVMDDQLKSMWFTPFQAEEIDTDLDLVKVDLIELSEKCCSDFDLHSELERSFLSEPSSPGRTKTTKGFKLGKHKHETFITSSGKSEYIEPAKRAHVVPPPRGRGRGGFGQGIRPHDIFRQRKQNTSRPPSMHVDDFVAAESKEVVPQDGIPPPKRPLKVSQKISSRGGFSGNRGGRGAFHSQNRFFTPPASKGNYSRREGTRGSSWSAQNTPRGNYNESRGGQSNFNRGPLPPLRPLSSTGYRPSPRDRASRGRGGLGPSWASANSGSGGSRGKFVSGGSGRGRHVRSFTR

What was measured:
[1] = biological target: KIAA1429 (VIRMA), full length, N-6× His-VIRMA (human) (UniProt Q69YN4); assay: cryo-EM structure; HWVZ complex cross-linked with 0.5 mM BS3 (2 h, 25 °C), glycerol density gradient; 3.0 Å map, de novo model; both purified
[2] = biological target: KIAA1429 (VIRMA), full length, N-6× His-VIRMA (human) (UniProt Q69YN4); assay: SEC; MACOM components co-expressed in High Five cells; HWVZ, HWV, WVZ and WV complexes purified by tandem affinity (Ni-NTA and STREP beads), then Superose 6 Increase 10/300 GL in 100 mM KCl, 20 mM HEPES pH 7.5, 10% glycerol, 1 mM DTT; SDS-PAGE of the complexes; both purified
[3] = biological target: KIAA1429 (VIRMA), full length, N-6× His-VIRMA (human) (UniProt Q69YN4); assay: cross-linking; BS3 XL-MS of purified MACOM (Fig. S4a, b): 0.5 mM BS3, 50 mM HEPES pH 7.5, 100 mM KCl, 5% glycerol, 25 °C, 2 h; pLink2; both purified
[4] = biological target: T1, Wilms' tumor 1-associated protein (WTAP), full length, N-6× His-WTAP (human) (UniProt Q15007); assay: as above
T1 sequence: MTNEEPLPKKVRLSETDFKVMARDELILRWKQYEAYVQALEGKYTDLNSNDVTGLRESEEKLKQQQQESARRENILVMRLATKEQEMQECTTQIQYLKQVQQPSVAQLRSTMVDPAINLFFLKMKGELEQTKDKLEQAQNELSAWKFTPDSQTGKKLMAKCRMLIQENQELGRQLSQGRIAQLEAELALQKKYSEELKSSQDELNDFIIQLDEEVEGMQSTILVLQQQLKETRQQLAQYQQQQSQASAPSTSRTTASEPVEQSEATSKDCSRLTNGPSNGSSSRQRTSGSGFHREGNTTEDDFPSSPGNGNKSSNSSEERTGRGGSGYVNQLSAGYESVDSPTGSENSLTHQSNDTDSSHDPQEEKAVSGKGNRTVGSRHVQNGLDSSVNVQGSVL

[5] = biological target: T2, Zinc finger CCCH domain-containing protein 13 (ZC3H13) (1106–1668), N-Twin-Strep-tag-ZC3H13 (1106–1668) (human) (UniProt Q5T200); assay: as above
T2 sequence: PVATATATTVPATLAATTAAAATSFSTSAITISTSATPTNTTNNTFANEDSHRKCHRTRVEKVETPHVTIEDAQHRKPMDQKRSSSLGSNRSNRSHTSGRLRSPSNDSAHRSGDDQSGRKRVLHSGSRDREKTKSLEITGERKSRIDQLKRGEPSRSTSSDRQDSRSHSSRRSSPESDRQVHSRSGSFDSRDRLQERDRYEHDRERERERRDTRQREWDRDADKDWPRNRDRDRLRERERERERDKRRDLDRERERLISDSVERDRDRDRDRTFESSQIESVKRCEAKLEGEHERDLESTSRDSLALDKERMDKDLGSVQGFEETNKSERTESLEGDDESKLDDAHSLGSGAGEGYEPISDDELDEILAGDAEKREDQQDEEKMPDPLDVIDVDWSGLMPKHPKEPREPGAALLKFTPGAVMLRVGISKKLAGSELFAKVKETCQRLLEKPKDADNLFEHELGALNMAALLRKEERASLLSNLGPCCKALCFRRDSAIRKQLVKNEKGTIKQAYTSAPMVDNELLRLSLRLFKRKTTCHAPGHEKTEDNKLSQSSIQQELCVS

[6] = biological target: T1, Wilms' tumor 1-associated protein (WTAP), full length, N-6× His-WTAP (human); assay: SEC; MACOM components co-expressed in High Five cells; HWVZ, HWV, WVZ and WV complexes purified by tandem affinity (Ni-NTA and STREP beads), then Superose 6 Increase 10/300 GL in 100 mM KCl, 20 mM HEPES pH 7.5, 10% glycerol, 1 mM DTT; SDS-PAGE of the complexes; both purified
[7] = biological target: T2, Zinc finger CCCH domain-containing protein 13 (ZC3H13) (1106–1668), N-Twin-Strep-tag-ZC3H13 (1106–1668) (human); assay: as above
[8] = biological target: T3, E3 ubiquitin ligase CBLL1 (HAKAI), full length, untagged (human) (UniProt Q75N03); assay: cross-linking; BS3 XL-MS of purified MACOM with MAC (Fig. S4c, d): 0.5 mM BS3, 50 mM HEPES pH 7.5, 100 mM KCl, 5% glycerol, 25 °C, 2 h; pLink2; both purified
T3 sequence: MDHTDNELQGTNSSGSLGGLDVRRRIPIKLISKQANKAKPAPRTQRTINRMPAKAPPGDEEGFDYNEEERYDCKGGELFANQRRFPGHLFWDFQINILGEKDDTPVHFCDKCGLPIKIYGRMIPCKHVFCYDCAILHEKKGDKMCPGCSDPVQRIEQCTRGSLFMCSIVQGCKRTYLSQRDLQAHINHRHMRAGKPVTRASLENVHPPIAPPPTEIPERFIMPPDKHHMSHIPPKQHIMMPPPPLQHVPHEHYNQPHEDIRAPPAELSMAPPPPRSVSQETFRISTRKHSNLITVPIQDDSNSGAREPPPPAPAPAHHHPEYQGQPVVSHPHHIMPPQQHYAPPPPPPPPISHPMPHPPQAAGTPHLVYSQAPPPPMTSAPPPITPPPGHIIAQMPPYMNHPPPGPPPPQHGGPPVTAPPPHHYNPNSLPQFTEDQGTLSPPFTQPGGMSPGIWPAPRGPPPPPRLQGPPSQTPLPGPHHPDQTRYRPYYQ

[9] = biological target: T2, Zinc finger CCCH domain-containing protein 13 (ZC3H13) (1106–1668), N-Twin-Strep-tag-ZC3H13 (1106–1668) (human); assay: as above

Measured: binding

B1: Zinc finger CCCH domain-containing protein 13 (ZC3H13) (1106–1668), N-Twin-Strep-tag-ZC3H13 (1106–1668) (domain or fragment, UniProt Q5T200 1106-1668)
chain: PVATATATTVPATLAATTAAAATSFSTSAITISTSATPTNTTNNTFANEDSHRKCHRTRVEKVETPHVTIEDAQHRKPMDQKRSSSLGSNRSNRSHTSGRLRSPSNDSAHRSGDDQSGRKRVLHSGSRDREKTKSLEITGERKSRIDQLKRGEPSRSTSSDRQDSRSHSSRRSSPESDRQVHSRSGSFDSRDRLQERDRYEHDRERERERRDTRQREWDRDADKDWPRNRDRDRLRERERERERDKRRDLDRERERLISDSVERDRDRDRDRTFESSQIESVKRCEAKLEGEHERDLESTSRDSLALDKERMDKDLGSVQGFEETNKSERTESLEGDDESKLDDAHSLGSGAGEGYEPISDDELDEILAGDAEKREDQQDEEKMPDPLDVIDVDWSGLMPKHPKEPREPGAALLKFTPGAVMLRVGISKKLAGSELFAKVKETCQRLLEKPKDADNLFEHELGALNMAALLRKEERASLLSNLGPCCKALCFRRDSAIRKQLVKNEKGTIKQAYTSAPMVDNELLRLSLRLFKRKTTCHAPGHEKTEDNKLSQSSIQQELCVS
binds: [1] | [2]

B2: E3 ubiquitin ligase CBLL1 (HAKAI), full length, untagged (protein, UniProt Q75N03 1-491)
chain: MDHTDNELQGTNSSGSLGGLDVRRRIPIKLISKQANKAKPAPRTQRTINRMPAKAPPGDEEGFDYNEEERYDCKGGELFANQRRFPGHLFWDFQINILGEKDDTPVHFCDKCGLPIKIYGRMIPCKHVFCYDCAILHEKKGDKMCPGCSDPVQRIEQCTRGSLFMCSIVQGCKRTYLSQRDLQAHINHRHMRAGKPVTRASLENVHPPIAPPPTEIPERFIMPPDKHHMSHIPPKQHIMMPPPPLQHVPHEHYNQPHEDIRAPPAELSMAPPPPRSVSQETFRISTRKHSNLITVPIQDDSNSGAREPPPPAPAPAHHHPEYQGQPVVSHPHHIMPPQQHYAPPPPPPPPISHPMPHPPQAAGTPHLVYSQAPPPPMTSAPPPITPPPGHIIAQMPPYMNHPPPGPPPPQHGGPPVTAPPPHHYNPNSLPQFTEDQGTLSPPFTQPGGMSPGIWPAPRGPPPPPRLQGPPSQTPLPGPHHPDQTRYRPYYQ
not listed: [1] | [8] | [9]
binds: all other assays above

B3: methyltransferase-like 14 (METTL14), full length (protein, UniProt Q9HCE5 1-456)
chain: MDSRLQEIRERQKLRRQLLAQQLGAESADSIGAVLNSKDEQREIAETRETCRASYDTSAPNAKRKYLDEGETDEDKMEEYKDELEMQQDEENLPYEEEIYKDSSTFLKGTQSLNPHNDYCQHFVDTGHRPQNFIRDVGLADRFEEYPKLRELIRLKDELIAKSNTPPMYLQADIEAFDIRELTPKFDVILLEPPLEEYYRETGITANEKCWTWDDIMKLEIDEIAAPRSFIFLWCGSGEGLDLGRVCLRKWGYRRCEDICWIKTNKNNPGKTKTLDPKAVFQRTKEHCLMGIKGTVKRSTDGDFIHANVDIDLIITEEPEIGNIEKPVEIFHIIEHFCLGRRRLHLFGRDSTIRPGWLTVGPTLTNSNYNAETYASYFSAPNSYLTGCTEEIERLRPKSPPPKSKSDRGGGAPRGGGRGGTSAGRGRERNRSNFRGERGGFRGGRGGAHRGGFPPR
binds: [8] | [9]
